Data from publication PMC8348221, “Characterization of the Intramolecular Interactions and Regulatory Mechanisms of the Scaffold Protein Tks4” (International Journal of Molecular Sciences, 2021).
No constants are given. Whether binding was seen depends on the method and setting.

Key:
Assay in all cases: other fluorescence titration; intrinsic tryptophan fluorescence emission spectra of the single SH3_(1), SH3_(2) or SH3_(3) domains with PRRL; both purified
[1] = biological target: T1, Tks4 SH3_(1) domain (residues 155–210) (human) (UniProt A1X283)
T1 sequence: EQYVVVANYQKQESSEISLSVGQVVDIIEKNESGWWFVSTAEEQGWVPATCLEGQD

[2] = biological target: T2, Tks4 SH3_(2) domain (residues 224–279) (human) (UniProt A1X283)
T2 sequence: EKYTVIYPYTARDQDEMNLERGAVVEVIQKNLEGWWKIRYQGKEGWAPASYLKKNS

[3] = biological target: T3, Tks4 SH3_(3) domain (residues 371–426) (human) (UniProt A1X283)
T3 sequence (chain, NT-647 amine-reactive dye (in the MST only)): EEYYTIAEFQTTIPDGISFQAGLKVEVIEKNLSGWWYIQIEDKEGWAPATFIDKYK

Measured: binding

B1: Tks4 PRRL fragment (residues 333–370) (domain or fragment, human)
chain: GSHMGDAKQRSPKMRQRPPPRRDMTIPRGLNLPKPPIPPQVE
notes: four N-terminal residues that are cloning artifacts; human Tks4 (SH3PXD2B), residues 333-370: proline-rich region with the PTAM (PPPRR) and the PKPPIPP motif; also called wild type PRRL; not shown: His-tag, N-terminal, cleaved
no binding: all assays above
